We go through two substances from patent US20030186254A1.

Sequences of proteins named here, by UniProt entry; tags and fusion partners are left off. A change or cut given only in a name is not applied to a line headed by its entry. Residues count along the entry.
UniProt O96013: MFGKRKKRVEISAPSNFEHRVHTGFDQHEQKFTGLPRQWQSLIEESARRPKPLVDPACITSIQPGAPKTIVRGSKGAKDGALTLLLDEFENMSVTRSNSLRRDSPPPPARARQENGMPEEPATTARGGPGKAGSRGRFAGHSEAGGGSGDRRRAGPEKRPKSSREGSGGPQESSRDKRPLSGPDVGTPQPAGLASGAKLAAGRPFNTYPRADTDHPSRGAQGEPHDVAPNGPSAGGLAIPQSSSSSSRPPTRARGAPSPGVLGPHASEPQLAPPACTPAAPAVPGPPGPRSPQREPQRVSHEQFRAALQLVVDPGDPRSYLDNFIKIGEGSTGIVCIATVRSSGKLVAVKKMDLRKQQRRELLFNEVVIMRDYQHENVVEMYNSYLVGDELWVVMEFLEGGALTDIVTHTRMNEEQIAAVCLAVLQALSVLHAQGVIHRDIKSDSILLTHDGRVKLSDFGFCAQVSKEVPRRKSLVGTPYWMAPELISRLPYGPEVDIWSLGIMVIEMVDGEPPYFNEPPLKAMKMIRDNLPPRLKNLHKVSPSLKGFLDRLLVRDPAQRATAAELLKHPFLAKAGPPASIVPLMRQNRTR
UniProt P60953, residues 1-188: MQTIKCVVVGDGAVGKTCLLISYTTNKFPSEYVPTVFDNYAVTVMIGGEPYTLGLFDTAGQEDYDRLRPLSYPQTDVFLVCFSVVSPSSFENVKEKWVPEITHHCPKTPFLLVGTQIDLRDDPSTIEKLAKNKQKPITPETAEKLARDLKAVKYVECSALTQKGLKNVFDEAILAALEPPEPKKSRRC

Test [1] has as its target GST-PAK4 (full-length human PAK4 serine/threonine kinase, amino-terminal GST fusion) (human) (UniProt O96013). The test is described as follows: co-precipitation of Cdc42, anti-Cdc42 Western blot.
For test [2], the target named is FLAG-tagged Tip60 (60 kD Tat-interacting protein, acetyl-transferase) (human). The test is described as follows: co-immunoprecipitation of proteins expressed in COS cells.
Test [3] shares this target. The test is described as follows: anti-FLAG immunoprecipitation from COS cells, co-precipitated GST-PAK4 by anti-GST Western blot.
In a further test the target is Cdc42 (UniProt P60953). The test is described as follows: co-immunoprecipitation of PAK4 co-expressed with the small G protein in COS cells.

These are yes or no findings as the source states them, for the method shown. Binding seen in cells or lysates may run through a third protein. Some binding calls cover weakened binding; strength is not graded here.

As for Cdc42 (from UniProt P60953 1-188), in test [1], the binding entry was “binds”.

Turning to “GST-PAK4 (full-length human PAK4 serine/threonine kinase, amino-terminal GST fusion) (from UniProt O96013 1-591) (enzyme)”, the binding result (in test [2]; in test [3]; in the test with Cdc42) was “binds” each time.
